Values quoted from earlier work as cited in US10624913B2, “Diagnostics and methods for treatment of non-alcoholic hepatic steatosis and hepatic steatohepatitis, and prevention of complications thereof” (VOLANT HOLDINGS GMBH, priority 2011, dated 2020).
Some results were stated once for a whole list of compounds, not compound by compound. At least one structure is not confirmed: it was looked up by name or label, or the drawing left a doubt.

Tested on: Hepatitis C virus
Conditions: agent added to pegIFN/Riba; cited from earlier work

CCC[C@H](NC(=O)[C@@H]1[C@H]2CCC[C@H]2CN1C(=O)[C@@H](NC(=O)[C@@H](NC(=O)c1cnccn1)C1CCCCC1)C(C)(C)C)C(=O)C(=O)NC1CC1 [Telaprevir]
sustained virological response: 65-75%
